The name of at least one read-out is uncertain.
System: A/Brisbane/59/2007 H1N1 Oseltamivir-Resistant NA
Type: biochemical, influenza A/Brisbane/59/2007 H1N1 Oseltamivir-Resistant

CC(=O)NC1C(NC(=N)N)C(F)C(Oc2c(F)cc3c(C)cc(=O)oc3c2F)(C(=O)O)OC1[C@H](O)[C@H](O)CO (stereo partly drawn) [compound 3, 5-Acetamido-4-guanidine-3-fluoro-3,4,5-trideoxy-2α-(4-methyl-6,8-difluoromethylumbelliferyl)-D-glycero-D-galactononulopyranosylnoic acid]
kcat/Km: 860000 M⁻¹ s⁻¹

Source: patent US11639348B2, “Compositions and methods for neuraminidase detection and quantification” (priority 2018, dated 2023)
